In article PMC12431657, “Discovery and mechanistic insights of dibenzoylmethane as a broad spectrum inhibitor of coronavirus” (PLOS Pathogens, 2025):
Where a name gives a salt, the structure may show the parent alone. Read-outs that look alike come from different tables or passages of the source. Out of some 3,300 compounds screened, about 60 (2%) showed an effect of 50% or more. This is one part of the list. Peptide text beside a SMILES is read from it.

Tested on: HCoV-OC43
Design: species or system RD; HTS, protection from HCoV-OC43 induced cell death, luminescent cell viability (CellCounting-Lite 2.0), inhibition rate
Conditions: 24 h post infection, 1 h compound pre-incubation, 10 µM, inhibitor

SMILES | OC43 Inhibition rate [%] | OC43 Inhibition rate (OC43 Inhibition rate, 24 h) [%]
CS/C=C/C(=O)NCCO[C@@H]1O[C@H](CO)[C@@H](O)[C@H](O)[C@H]1O [Entadamide-A-β-D-glucopyranoside] | -0.1 | –
C[C@H](CCC(=O)NCC(=O)O)[C@H]1CC[C@H]2[C@@H]3[C@H](O)C[C@@H]4C[C@H](O)CC[C@]4(C)[C@H]3C[C@H](O)[C@]12C [Glycocholic acid] | – | -0.5
N[C@@H](CCC(=O)O)C(=O)N[C@@H](Cc1c[nH]c2ccccc12)C(=O)O [Oglufanide] (H-Glu-Trp-OH) | 0.6 | –
CC(C)c1cc2c(c(O)c1O)[C@@]13CCCC(C)(C)[C@@H]1C[C@@H]2OC3=O [Carnosol] | -0.4 | –
Cc1ncc(C[n+]2csc(CCO)c2C)c(N)n1 [Thiamine (hydrochloride)] | – | 1.2
O=C1c2c(O)cccc2C([C@@H]2O[C@H](CO)[C@@H](O)[C@H](O)[C@H]2O)c2cc(CO)cc(O)c21 (stereo partly drawn) [Aloin] | 0.3 | –
CC(C)C[C@H](NC(=O)[C@@H](O)[C@H](N)Cc1ccccc1)C(=O)O [Bestatin] | – | 1.8
COc1ccc2c(c1OC)CN(C)CCc1cc3c(cc1C(=O)C2)OCO3 [Allocryptopine] | 0.1 | –
C[C@@H]1CC[C@@]2(OC1)O[C@H]1C[C@H]3[C@@H]4CC=C5C[C@@H](O[C@@H]6O[C@H](CO)[C@@H](O)[C@H](O)[C@H]6O[C@@H]6O[C@@H](C)[C@H](O)[C@@H](O)[C@H]6O)CC[C@]5(C)[C@H]4CC[C@]3(C)[C@H]1[C@@H]2C [Prosapogenin A] | -12 | –
O=C(O)C[C@@](O)(C(=O)O)[C@H](O)C(=O)O [(-)-Hydroxycitric acid] | 1.5 | –
COc1ccc([C@@H]2OC[C@H]3[C@@H]2CO[C@@H]3c2ccc3c(c2)OCO3)cc1OC [Fargesin] | 1.1 | –
C=C1C(=O)[C@]23[C@H](O)[C@H]1CC[C@H]2[C@@]12CO[C@]3(O)[C@@H](O)[C@@H]1C(C)(C)CC[C@@H]2O [Oridonin] | 17.2 | –
NC(CCC(=O)O)C(=O)O (racemic) [DL-Glutamic acid] | -0.3 | –
CCCCCCCCCCCCCCCCC(=O)OC [Methyl heptadecanoate] | 2.2 | –
CC(=O)OCC[N+](C)(C)C [Acetylcholine (chloride)] | – | -0.3
CC(=O)OC[C@@]12CC[C@@H](C)[C@](C)(CCC3=CC(=O)OC3)[C@H]1C[C@H](O)C=C2CO [Blinin] | 0.6 | –
Oc1ccc(/C=C/c2cc(O)cc(O)c2)cc1 [Resveratrol] | -0.1 | –
O=C(O)c1ccccc1O [Sodium Salicylate] | – | -1.1

2 entries from above in another layout.
CCCCCCCCCCCCCCCCC(=O)OC [Methyl heptadecanoate]
  OC43 Inhibition rate [%]: 2.2
CC(=O)OCC[N+](C)(C)C [Acetylcholine (chloride)]
  OC43 Inhibition rate (OC43 Inhibition rate, 24 h) [%]: -0.3

The listing continues.

SMILES | OC43 Inhibition rate [%] | OC43 Inhibition rate (OC43 Inhibition rate, 24 h) [%]
CN(C)Cc1c[nH]c2ccccc12 [Gramine] | 0.2 | –
CC[C@]1(O)C[C@H]2CN(CCc3c([nH]c4ccccc34)[C@@](C(=O)OC)(c3cc4c(cc3OC)N(C=O)[C@H]3[C@@](O)(C(=O)OC)[C@H](OC(C)=O)[C@]5(CC)C=CCN6CC[C@]43[C@@H]65)C2)C1 [Vincristine (sulfate)] | 0.3 | –
NC[C@@H]1O[C@H](O[C@H]2[C@@H](O)[C@H](O[C@@H]3[C@@H](O)[C@H](N)C[C@H](N)[C@H]3O[C@H]3O[C@H](CO)[C@@H](O)[C@H](O)[C@H]3N)O[C@@H]2CO)[C@H](N)[C@@H](O)[C@@H]1O [Paromomycin (sulfate)] | 16.9 | –
O=C1C[C@@H](c2ccc(O)cc2)Oc2cc(O[C@@H]3O[C@H](CO)[C@@H](O)[C@H](O)[C@H]3O)ccc21 [Neoliquiritin] | 2.5 | –
COc1ccccc1OCC(O)CO (stereo not drawn) [Guaifenesin] | -1.5 | –
Cc1coc2c1C(=O)c1ccc3c(c1C2=O)CCCC3(C)C [Isotanshinone IIA] | 0.1 | –
Cc1cc(O)cc(O)c1 [Orcinol] | -0.4 | –
COC(=O)[C@H]1[C@H]2C[C@@H]3c4[nH]c5cc(OC)ccc5c4CCN3C[C@H]2C[C@@H](OC(=O)c2cc(OC)c(OC)c(OC)c2)[C@@H]1OC [Reserpine (hydrochloride)] | – | 16.8
CC1(C)[C@@H](O)CC[C@]2(C)[C@H]3CC=C4[C@@H]5C[C@@]6(C)C[C@H](OC6=O)[C@]5(C)CC[C@@]4(C)[C@]3(C)CC[C@@H]12 [Wilforlide A] | 0.1 | –
Oc1cc(O)c2c(c1)O[C@H](c1ccc(O)c(O)c1)[C@H](O)[C@H]2c1c(O)cc(O)c2c1O[C@H](c1ccc(O)c(O)c1)[C@H](O)C2 [Procyanidin B2] | 0.4 | –
CC(C)=CCC/C(C)=C/C=O [Citral] | 0 | –
COc1cccc2c1C(=O)c1c(O)c3c(c(O)c1C2=O)C[C@@](O)(C(C)=O)C[C@@H]3O[C@H]1C[C@H](N)[C@H](O)[C@H](C)O1 [Daunorubicin (hydrochloride)] | 11.9 | –
O=C(O[C@@H]1Cc2c(O)cc(O)cc2O[C@@H]1c1cc(O)c(=O)c2c(O)c(O)cc([C@H]3Oc4cc(O)cc(O)c4C[C@H]3OC(=O)c3cc(O)c(O)c(O)c3)c2c1)c1cc(O)c(O)c(O)c1 [Theaflavin 3,3'-digallate] | 1.3 | –
O=c1ccn([C@@H]2O[C@H](CO)[C@@H](O)[C@@H]2O)c(=O)[nH]1 [1-beta-D-Arabinofuranosyluracil] | 0.9 | –
COc1cc(-c2oc3cc(O)cc(O)c3c(=O)c2O)ccc1O [Isorhamnetin] | -0.5 | –
CC1(C)CC[C@]2(C(=O)O[C@@H]3O[C@H](CO)[C@@H](O)[C@H](O)[C@H]3O)CC[C@]3(C)C(=CC[C@@H]4[C@@]5(C)CC[C@H](O[C@@H]6O[C@H](C(=O)O)[C@@H](O)[C@H](O)[C@H]6O[C@@H]6O[C@H](CO)[C@@H](O)[C@H](O)[C@H]6O)C(C)(C)[C@@H]5CC[C@]43C)[C@@H]2C1 [Ginsenoside Ro] | 5.9 | –
Oc1ccc([C@H]2Oc3cc(O)cc(O)c3C[C@H]2O)cc1 [(-)-Epiafzelechin] | 4.1 | –
O=C[C@H](O)[C@@H](O)[C@@H](O)[C@H](O)C(=O)O [D-Galacturonic acid (hydrate)] | -1.4 | –
